These are yes or no findings as the source states them, for the method shown. Binding can be weak; no strength is given. Sequences can lack the tags named with a protein.
Biological target: T1, Gal4-BD-Cdk8 (S. cerevisiae) (UniProt P39073)
T1 sequence: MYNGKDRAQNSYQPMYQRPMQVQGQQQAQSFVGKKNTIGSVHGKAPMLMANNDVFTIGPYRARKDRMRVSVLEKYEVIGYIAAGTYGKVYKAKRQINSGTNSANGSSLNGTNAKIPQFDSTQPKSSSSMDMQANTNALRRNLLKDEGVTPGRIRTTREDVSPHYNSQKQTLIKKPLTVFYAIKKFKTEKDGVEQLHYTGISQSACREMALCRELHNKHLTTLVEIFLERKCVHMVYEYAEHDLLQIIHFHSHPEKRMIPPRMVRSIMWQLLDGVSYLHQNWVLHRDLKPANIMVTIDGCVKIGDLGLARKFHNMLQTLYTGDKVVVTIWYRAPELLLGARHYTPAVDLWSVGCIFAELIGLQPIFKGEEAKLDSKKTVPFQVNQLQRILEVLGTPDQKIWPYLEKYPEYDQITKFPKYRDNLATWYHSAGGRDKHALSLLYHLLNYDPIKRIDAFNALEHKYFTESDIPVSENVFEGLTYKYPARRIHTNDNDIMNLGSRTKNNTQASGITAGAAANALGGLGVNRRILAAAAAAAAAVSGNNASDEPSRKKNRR
Experiment: two-hybrid; Y2H Gold cells harboring Gal4-BD-Cdk8 and Gal4-AD-Rim15 subclones; read-out induction of the ADE2 and HIS3 reporter genes

Substance	binding
Gal4-AD-Rim15 N-terminal PAS-ZnF domain (S. cerevisiae) (domain or fragment)	binds
Gal4-AD-Rim15 C-Terminal Disordered-Regulatory domain (DDII REG) (S. cerevisiae) (domain or fragment)	no binding

Reference: paper PMC9008841
